Data reported in article doi:10.1101/532275.
Results are given in words; binding and its absence hold for the method and conditions named. In cells and extracts the contact can be indirect. Where a sequence is shown, tags or fusion partners need not be part of it.

Biological target: GFP-NbATG8f (GFP as an N-terminal fusion, pGWB6-NbATG8f) (N. benthamiana)
Test: co-IP

- binding: no binding
B1: GUSp-Myc (1-166 aa of GUS, C-terminal Myc tag) (domain or fragment, UniProt P05804 1-166)
chain: MLRPVETPTREIKKLDGLWAFSLDRENCGIDQRWWESALQESRAIAVPGSFNDQFADADIRNYAGNVWYQREVFIPKGWAGQRIVLRFDAVTHYGKVWVNNQEVMEHQGGYTPFEADVTPYVIAGKSVRITVCVNNELNWQTIPPGMVITDENGKKKQSYFHDFFN
